In patent US6518054B1, “Metallo-endopeptidases” (Rijksuniverstteit Te Groningen, priority 1997, dated 2003):
Positions count from the first letter of the chain named. In names and notes the source's numbering stands. At least one read-out could not be matched to a standard name with certainty.

B1: 8-fold mutant: TLP-ste with A4T, T56A, G58A, T63F, S65P, A69P and a disulfide bridge G8C-N60C (protein)
chain: VAGTSTVCVGRGVLGDQKYINTTYSSYYGYYYLQDNTRGSGIFTYDGRNRTVLPGSLWADADCQFFAPYDAPAVDAHYYAGVVYDYYKNVHGRLSYDGSNAAIRSTVHYGRGYNNAFWNGSQMVYGDGDGQTFLPFSGGIDVVGHELTHAVTDYTAGLVYQNESGAINEAMSDIFGTLVEFYANRNPDWEIGEDIYTPGVAGDALRSMSDPAKYGDPDHYSKRYTGTQDNGGVHTNSGIINKAAYLLSQGGVHYGVSVNGIGRDKMGKIFYRALVYYLTPTSNFSQLRAACVQAAADLYGSTSQEVNSVKQAFNAVGVY
B2: T63F-A69P: TLP-ste variant with the combined stabilising T63F-A69P mutation (protein, listed as Bacillus sp.)
chain: VAGASTVGVGRGVLGDQKYINTTYSGYYYLQDNTRGSGIFTYDGRNRTVLPGSLWTDGDNQFFASYDAPAVDAHYYAGVVYDYYKNVHGRLSYDGSNAAIRSTVHYGRGYNNAFWNGSQMVYGDGDGQTFLPFSGGIDVVGHELTHAVTDYTAGLVYQNESGAINEAMSDIFGTLVEFYANRNPDWEIGEDIYTPGVAGDALRSMSDPAKYGDPDHYSKRYTGTQDNGGVHTNSGIINKAAYLLSQGGVHYGVSVNGIGRDKMGKIFYRALVYYLTPTSNFSQLRAACVQAAADLYGSTSQEVNSVKQAFNAVGVY
B3: D57S-T63F-A69P: TLP-ste variant combining D57S with T63F-A69P (protein, listed as Bacillus sp.)
chain: B2 chain with D57S
B4: D57S: TLP-ste variant with Asp57 of the Ca3 site replaced by Ser (protein, listed as Bacillus sp.)
chain: B2 chain with D57S, F63T, P69A

Tests used:
[1] = kcat/Km for FaGLa at 37° C. (MOPS pH 7.0); assay type: biochemical; details: MOPS pH 7.0, 5 mM CaCl2
[2] = kcat/Km for FaGLa at 37° C. (Tris-HCl pH 7.5); assay type: biochemical

Row | Molecule | kcat/Km FaGLa [1] | FaGLa, kcat/Km [2]
1 | B1 | 30 ± 6 (M^−1.s^−1) 10^−3 | 
2 | B2 |  | 21 × 10^−3 (M^−1 · S^−1)
3 | B3 |  | 28 × 10^−3 (M^−1 · S^−1)
4 | B4 |  | 22 × 10^−3 (M^−1 · S^−1)
